Laboratory results taken from paper PMC5986797, “Laminin heparin-binding peptides bind to several growth factors and enhance diabetic wound healing” (Nature Communications, 2018).

Amino acid sequences for entries named in this document (tags omitted). A change or cut given only in a name is not applied to a line headed by its entry. Residues count along the entry.
UniProt Q16363: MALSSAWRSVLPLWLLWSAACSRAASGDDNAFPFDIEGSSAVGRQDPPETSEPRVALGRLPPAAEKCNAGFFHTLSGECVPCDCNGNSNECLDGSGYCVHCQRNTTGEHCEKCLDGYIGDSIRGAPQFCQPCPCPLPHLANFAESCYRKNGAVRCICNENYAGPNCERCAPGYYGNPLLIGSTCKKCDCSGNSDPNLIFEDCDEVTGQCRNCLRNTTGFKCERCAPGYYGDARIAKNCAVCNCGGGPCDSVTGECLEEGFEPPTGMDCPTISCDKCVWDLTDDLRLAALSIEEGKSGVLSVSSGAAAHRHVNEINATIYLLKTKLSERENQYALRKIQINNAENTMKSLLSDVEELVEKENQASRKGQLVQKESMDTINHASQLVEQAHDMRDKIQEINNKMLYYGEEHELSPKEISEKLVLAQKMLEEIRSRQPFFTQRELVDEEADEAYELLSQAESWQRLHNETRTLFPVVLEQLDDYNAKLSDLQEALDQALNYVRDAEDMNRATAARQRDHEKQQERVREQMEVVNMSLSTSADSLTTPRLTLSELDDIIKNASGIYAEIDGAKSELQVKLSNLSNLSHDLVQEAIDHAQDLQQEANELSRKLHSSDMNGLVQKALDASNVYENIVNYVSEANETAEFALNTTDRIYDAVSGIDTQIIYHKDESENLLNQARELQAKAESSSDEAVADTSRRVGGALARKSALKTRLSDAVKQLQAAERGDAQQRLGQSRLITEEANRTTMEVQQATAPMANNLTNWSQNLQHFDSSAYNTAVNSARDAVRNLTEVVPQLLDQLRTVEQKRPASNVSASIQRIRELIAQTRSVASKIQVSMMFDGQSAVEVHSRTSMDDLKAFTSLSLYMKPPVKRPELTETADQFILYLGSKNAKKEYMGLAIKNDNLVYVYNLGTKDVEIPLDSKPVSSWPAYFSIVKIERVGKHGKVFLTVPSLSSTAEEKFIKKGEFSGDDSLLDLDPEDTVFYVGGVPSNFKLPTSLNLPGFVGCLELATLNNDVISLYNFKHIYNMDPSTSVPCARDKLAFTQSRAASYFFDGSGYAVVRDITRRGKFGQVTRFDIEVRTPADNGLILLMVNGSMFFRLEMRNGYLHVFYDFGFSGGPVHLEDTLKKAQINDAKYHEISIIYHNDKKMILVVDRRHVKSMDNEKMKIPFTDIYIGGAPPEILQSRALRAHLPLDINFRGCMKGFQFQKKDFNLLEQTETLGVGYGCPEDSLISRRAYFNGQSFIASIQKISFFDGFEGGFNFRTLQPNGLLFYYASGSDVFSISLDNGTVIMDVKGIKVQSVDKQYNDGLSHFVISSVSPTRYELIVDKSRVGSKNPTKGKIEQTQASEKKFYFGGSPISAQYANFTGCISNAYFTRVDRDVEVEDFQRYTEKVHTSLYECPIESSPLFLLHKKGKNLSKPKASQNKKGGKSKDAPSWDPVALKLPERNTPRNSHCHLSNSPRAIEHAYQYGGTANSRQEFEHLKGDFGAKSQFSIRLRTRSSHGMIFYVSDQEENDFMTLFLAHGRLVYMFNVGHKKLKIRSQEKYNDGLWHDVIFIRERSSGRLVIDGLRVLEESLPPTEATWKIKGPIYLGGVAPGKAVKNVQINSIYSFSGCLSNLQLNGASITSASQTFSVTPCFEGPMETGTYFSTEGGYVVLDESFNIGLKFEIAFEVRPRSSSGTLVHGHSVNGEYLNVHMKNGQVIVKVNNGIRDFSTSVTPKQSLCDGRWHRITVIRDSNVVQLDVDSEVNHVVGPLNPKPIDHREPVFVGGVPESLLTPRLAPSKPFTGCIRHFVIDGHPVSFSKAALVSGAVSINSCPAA
UniProt P09038, residues 143-288: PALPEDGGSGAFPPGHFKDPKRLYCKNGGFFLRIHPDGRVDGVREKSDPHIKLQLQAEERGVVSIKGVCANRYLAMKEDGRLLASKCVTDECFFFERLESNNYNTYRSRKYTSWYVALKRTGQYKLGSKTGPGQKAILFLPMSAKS
UniProt P01127, residues 82-190: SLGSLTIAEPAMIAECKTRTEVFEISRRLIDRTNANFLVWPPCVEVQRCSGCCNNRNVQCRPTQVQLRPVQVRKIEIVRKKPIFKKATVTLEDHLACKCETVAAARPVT

What was measured:
[1] = target: laminin alpha 4 LG domain recombinant protein LAMA4_(826–1816) (human) (UniProt Q16363); assay: ELISA; plates coated with 1 μg/mL recombinant laminin LG domain; 1 μg/mL GF added; bound GF detected with an antibody for each GF; BSA-coated wells as control; both purified
[2] = target: T1, recombinant laminin LAMA3_(2928–3150) protein (human) (UniProt Q16787); assay: as above
T1 sequence: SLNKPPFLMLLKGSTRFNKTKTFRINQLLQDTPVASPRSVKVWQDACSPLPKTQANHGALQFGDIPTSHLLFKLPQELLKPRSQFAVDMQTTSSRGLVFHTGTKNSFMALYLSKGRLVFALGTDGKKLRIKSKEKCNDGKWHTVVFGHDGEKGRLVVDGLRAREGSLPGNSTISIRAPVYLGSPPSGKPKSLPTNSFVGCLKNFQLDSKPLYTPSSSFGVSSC

[3] = target: T2, laminin alpha 5 LG domain recombinant protein LAMA5_(3026–3482) (human) (UniProt O15230); assay: as above
T2 sequence: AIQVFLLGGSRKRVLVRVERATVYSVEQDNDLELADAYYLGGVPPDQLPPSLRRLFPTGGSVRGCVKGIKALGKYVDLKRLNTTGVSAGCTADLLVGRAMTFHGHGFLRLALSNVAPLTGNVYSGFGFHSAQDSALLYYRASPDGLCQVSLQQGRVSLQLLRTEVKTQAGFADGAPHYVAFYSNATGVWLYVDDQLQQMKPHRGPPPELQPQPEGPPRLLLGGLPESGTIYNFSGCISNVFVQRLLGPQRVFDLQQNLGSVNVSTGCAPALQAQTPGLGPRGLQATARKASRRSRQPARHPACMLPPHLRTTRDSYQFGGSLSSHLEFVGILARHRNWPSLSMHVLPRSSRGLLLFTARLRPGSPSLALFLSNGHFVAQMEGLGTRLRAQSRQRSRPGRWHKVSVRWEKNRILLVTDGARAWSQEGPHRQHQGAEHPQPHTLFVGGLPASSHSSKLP

[4] = target: T3, laminin peptide LAMA5_(3300–3330) (human) (UniProt O15230); assay: ELISA; plates coated with laminin peptide (10 µg/mL by the legend, 1 μg/mL by the methods); 1 μg/mL GF added; bound GF detected with an antibody for each GF; BSA-coated wells as control; both purified
T3 sequence (peptide): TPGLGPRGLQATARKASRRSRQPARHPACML

[5] = target: T4, laminin peptide LAMA5_(3312–3325) (human) (UniProt O15230); assay: as above
T4 sequence (peptide): ARKASRRSRQPARH

[6] = target: T5, laminin peptide LAMA5_(3417–3436) (human) (UniProt O15230); assay: as above
T5 sequence (peptide): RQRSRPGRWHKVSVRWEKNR

[7] = target: T6, laminin peptide LAMA3_(3031–3043) (human) (UniProt Q16787); assay: as above
T6 sequence (peptide): KNSFMALYLSKGR

[8] = target: T7, laminin peptide LAMA3_(2932–2951) (human) (UniProt Q16787); assay: as above
T7 sequence (peptide): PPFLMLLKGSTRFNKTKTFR

[9] = target: T8, laminin peptide LAMA3_(3043–3067) (human) (UniProt Q16787); assay: as above
T8 sequence (peptide): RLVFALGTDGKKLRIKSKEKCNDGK

[10] = target: T9, laminin peptide LAMA5_(3539–3550) (human) (UniProt O15230); assay: as above
T9 sequence (peptide): TLPDVGLELEVR

binding [1]	binding [2]	binding [3]	binding [4]	binding [5]	binding [6]	binding [7]	binding [8]	binding [9]	binding [10]	Substance
binds										FGF-2 (from UniProt P09038 143-288) (ligand)
	no binding (tested: 1 μg/mL)	no binding (tested: 1 μg/mL)	no binding (tested: 1 μg/mL)	no binding (tested: 1 μg/mL)	no binding (tested: 1 μg/mL)	no binding (tested: 1 μg/mL)	no binding (tested: 1 μg/mL)	no binding (tested: 1 μg/mL)	no binding (tested: 1 μg/mL)	VEGF-A121 (human) (ligand)
binds										platelet-derived growth factor PDGF-BB (from UniProt P01127 82-190) (ligand)
	binds	binds	binds	no binding (tested: 1 μg/mL)	binds	binds	binds	binds	binds	vascular endothelial cell growth factor VEGF-A165 (human) (ligand)

These are yes or no findings as the source states them, for the method shown. For some assays here: Binding calls can cover weak binding; strength is not graded here.
